Laboratory results from PMC5680368.
No constants are given. Whether binding was seen depends on the method and setting. In cells and extracts the contact can be indirect. Here binding means that the protein was enriched with, or labelled near, the bait; the list need not be complete. Sequences can lack the tags named with a protein.

T1: human OSTF1 tagged at the N-terminus with a V5-epitope tag (human) (UniProt Q92882)
T1 sequence: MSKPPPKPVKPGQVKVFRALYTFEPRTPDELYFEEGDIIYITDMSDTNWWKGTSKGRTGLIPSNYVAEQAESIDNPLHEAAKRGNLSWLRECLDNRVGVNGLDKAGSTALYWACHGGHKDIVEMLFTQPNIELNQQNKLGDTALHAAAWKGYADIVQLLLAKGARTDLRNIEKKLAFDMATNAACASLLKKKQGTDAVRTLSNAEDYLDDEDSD

B1: Myosin 1E (protein, UniProt Q12965 1-1108)
chain: MGSKGVYQYHWQSHNVKHSGVDDMVLLSKITENSIVENLKKRYMDDYIFTYIGSVLISVNPFKQMPYFGEKEIEMYQGAAQYENPPHIYALADNMYRNMIIDRENQCVIISGESGAGKTVAAKYIMSYISRVSGGGTKVQHVKDIILQSNPLLEAFGNAKTVRNNNSSRFGKYFEIQFSPGGEPDGGKISNFLLEKSRVVMRNPGERSFHIFYQLIEGASAEQKHSLGITSMDYYYYLSLSGSYKVDDIDDRREFQETLHAMNVIGIFAEEQTLVLQIVAGILHLGNISFKEVGNYAAVESEEFLAFPAYLLGINQDRLKEKLTSRQMDSKWGGKSESIHVTLNVEQACYTRDALAKALHARVFDFLVDSINKAMEKDHEEYNIGVLDIYGFEIFQKNGFEQFCINFVNEKLQQIFIELTLKAEQEEYVQEGIRWTPIEYFNNKIVCDLIENKVNPPGIMSILDDVCATMHAVGEGADQTLLQKLQMQIGSHEHFNSWNQGFIIHHYAGKVSYDMDGFCERNRDVLFMDLIELMQSSELPFIKSLFPENLQADKKGRPTTAGSKIKKQANDLVSTLMKCTPHYIRCIKPNETKKPRDWEESRVKHQVEYLGLKENIRVRRAGYAYRRIFQKFLQRYAILTKATWPSWQGEEKQGVLHLLQSVNMDSDQFQLGRSKVFIKAPESLFLLEEMRERKYDGYARVIQKSWRKFVARKKYVQMREEASDLLLNKKERRRNSINRNFIGDYIGMEEHPELQQFVGKREKIDFADTVTKYDRRFKGVKRDLLLTPKCLYLIGREKVKQGPDKGLVKEVLKRKIEIERILSVSLSTMQDDIFILHEQEYDSLLESVFKTEFLSLLAKRYEEKTQKQLPLKFSNTLELKLKKENWGPWSAGGSRQVQFHQGFGDLAVLKPSNKVLQVSIGPGLPKNSRPTRRNTTQNTGYSSGTQNANYPVRAAPPPPGYHQNGVIRNQYVPYPHAPGSQRSNQKSLYTSMARPPLPRQQSTSSDRVSQTPESLDFLKVPDQGAAGVRRQTTSRPPPAGGRPKPQPKPKPQVPQCKALYAYDAQDTDELSFNANDIIDIIKEDPSGWWTGRLRGKQGLFPNNYVTKI
B2: FTSJ3 (protein, UniProt Q8IY81 1-847)
chain: MGKKGKVGKSRRDKFYHLAKETGYRSRSAFKLIQLNRRFQFLQKARALLDLCAAPGGWLQVAAKFMPVSSLIVGVDLVPIKPLPNVVTLQQDITTERCRQALRKELKTWKVDVVLNDGAPNVGASWVHDAYSQAHLTLMALRLACDFLARGGSFITKVFRSRDYQPLLWIFQQLFRRVQATKPQASRHESAEIFVVCQGFLAPDKVDSKFFDPKFAFKEVEVQAKTVTELVTKKKPKAEGYAEGDLTLYHRTSVTDFLRAANPVDFLSKASEIMVDDEELAQHPATTEDIRVCCQDIRVLGRKELRSLLNWRTKLRRYVAKKLKEQAKALDISLSSGEEDEGDEEDSTAGTTKQPSKEEEEEEEEEQLNQTLAEMKAQEVAELKRKKKKLLREQRKQRERVELKMDLPGVSIADEGETGMFSLSTIRGHQLLEEVTQGDMSAADTFLSDLPRDDIYVSDVEDDGDDTSLDSDLDPEELAGVRGHQGLRDQKRMRLTEVQDDKEEEEEENPLLVPLEEKAVLQEEQANLWFSKGSFAGIEDDADEALEISQAQLLFENRRKGRQQQQKQQLPQTPPSCLKTEIMSPLYQDEAPKGTEASSGTEAATGLEGEEKDGISDSDSSTSSEEEESWEPLRGKKRSRGPKSDDDGFEIVPIEDPAKHRILDPEGLALGAVIASSKKAKRDLIDNSFNRYTFNEDEGELPEWFVQEEKQHRIRQLPVGKKEVEHYRKRWREINARPIKKVAEAKARKKRRMLKRLEQTRKKAEAVVNTVDISEREKVAQLRSLYKKAGLGKEKRHVTYVVAKKGVGRKVRRPAGVRGHFKVVDSRMKKDQRAQQRKEQKKKHKRK
B3: PAK1 interacting protein 1 (protein, UniProt Q9NWT1 1-392)
chain: MELVAGCYEQVLFGFAVHPEPEACGDHEQWTLVADFTHHAHTASLSAVAVNSRFVVTGSKDETIHIYDMKKKIEHGALVHHSGTITCLKFYGNRHLISGAEDGLICIWDAKKWECLKSIKAHKGQVTFLSIHPSGKLALSVGTDKTLRTWNLVEGRSAFIKNIKQNAHIVEWSPRGEQYVVIIQNKIDIYQLDTASISGTITNEKRISSVKFLSESVLAVAGDEEVIRFFDCDSLVCLCEFKAHENRVKDMFSFEIPEHHVIVSASSDGFIKMWKLKQDKKVPPSLLCEINTNARLTCLGVWLDKVADMKESLPPAAEPSPVSKEQSKIGKKEPGDTVHKEEKRSKPNTKKRGLTGDSKKATKESGLISTKKRKMVEMLEKKRKKKKIKTMQ
B4: Adaptor-related protein complex 3, delta-1 subuint (protein, UniProt O14617 1-1153)
chain: MALKMVKGSIDRMFDKNLQDLVRGIRNHKEDEAKYISQCIDEIKQELKQDNIAVKANAVCKLTYLQMLGYDISWAAFNIIEVMSASKFTFKRIGYLAASQSFHEGTDVIMLTTNQIRKDLSSPSQYDTGVALTGLSCFVTPDLARDLANDIMTLMSHTKPYIRKKAVLIMYKVFLKYPESLRPAFPRLKEKLEDPDPGVQSAAVNVICELARRNPKNYLSLAPLFFKLMTSSTNNWVLIKIIKLFGALTPLEPRLGKKLIEPLTNLIHSTSAMSLLYECVNTVIAVLISLSSGMPNHSASIQLCVQKLRILIEDSDQNLKYLGLLAMSKILKTHPKSVQSHKDLILQCLDDKDESIRLRALDLLYGMVSKKNLMEIVKKLMTHVDKAEGTTYRDELLTKIIDICSQSNYQYITNFEWYISILVELTRLEGTRHGHLIAAQMLDVAIRVKAIRKFAVSQMSALLDSAHLLASSTQRNGICEVLYAAAWICGEFSEHLQEPHHTLEAMLRPRVTTLPGHIQAVYVQNVVKLYASILQQKEQAGEAEGAQAVTQLMVDRLPQFVQSADLEVQERASCILQLVKHIQKLQAKDVPVAEEVSALFAGELNPVAPKAQKKVPVPEGLDLDAWINEPLSDSESEDERPRAVFHEEEQRRPKHRPSEADEEELARRREARKQEQANNPFYIKSSPSPQKRYQDTPGVEHIPVVQIDLSVPLKVPGLPMSDQYVKLEEERRHRQKLEKDKRRKKRKEKEKKGKRRHSSLPTESDEDIAPAQQVDIVTEEMPENALPSDEDDKDPNDPYRALDIDLDKPLADSEKLPIQKHRNTETSKSPEKDVPMVEKKSKKPKKKEKKHKEKERDKEKKKEKEKKKSPKPKKKKHRKEKEERTKGKKKSKKQPPGSEEAAGEPVQNGAPEEEQLPPESSYSLLAENSYVKMTCDIRGSLQEDSQVTVAIVLENRSSSILKGMELSVLDSLNARMARPQGSSVHDGVPVPFQLPPGVSNEAQYVFTIQSIVMAQKLKGTLSFIAKNDEGATHEKLDFRLHFSCSSYLITTPCYSDAFAKLLESGDLSMSSIKVDGIRMSFQNLLAKICFHHHFSVVERVDSCASMYSRSIQGHHVCLLVKKGENSVSVDGKCSDSTLLSNLLEEMKATLAKC
B5: SLU7 homolog (protein, UniProt O95391 1-586)
chain: MSATVVDAVNAAPLSGSKEMSLEEPKKMTREDWRKKKELEEQRKLGNAPAEVDEEGKDINPHIPQYISSVPWYIDPSKRPTLKHQRPQPEKQKQFSSSGEWYKRGVKENSIITKYRKGACENCGAMTHKKKDCFERPRRVGAKFTGTNIAPDEHVQPQLMFDYDGKRDRWNGYNPEEHMKIVEEYAKVDLAKRTLKAQKLQEELASGKLVEQANSPKHQWGEEEPNSQMEKDHNSEDEDEDKYADDIDMPGQNFDSKRRITVRNLRIREDIAKYLRNLDPNSAYYDPKTRAMRENPYANAGKNPDEVSYAGDNFVRYTGDTISMAQTQLFAWEAYDKGSEVHLQADPTKLELLYKSFKVKKEDFKEQQKESILEKYGGQEHLDAPPAELLLAQTEDYVEYSRHGTVIKGQERAVACSKYEEDVKIHNHTHIWGSYWKEGRWGYKCCHSFFKYSYCTGEAGKEIVNSEECIINEITGEESVKKPQTLMELHQEKLKEEKKKKKKKKKKHRKSSSDSDDEEKKHEKLKKALNAEEARLLHVKETMQIDERKRPYNSMYETREPTEEEMEAYRMKRQRPDDPMASFLGQ
B6: RNA binding protein with serine rich domain 1 (protein, UniProt Q15287 1-305)
chain: MDLSGVKKKSLLGVKENNKKSSTRAPSPTKRKDRSDEKSKDRSKDKGATKESSEKDRGRDKTRKRRSASSGSSSTRSRSSSTSSSGSSTSTGSSSGSSSSSASSRSGSSSTSRSSSSSSSSGSPSPSRRRHDNRRRSRSKSKPPKRDEKERKRRSPSPKPTKVHIGRLTRNVTKDHIMEIFSTYGKIKMIDMPVERMHPHLSKGYAYVEFENPDEAEKALKHMDGGQIDGQEITATAVLAPWPRPPPRRFSPPRRMLPPPPMWRRSPPRMRRRSRSPRRRSPVRRRSRSPGRRRHRSRSSSNSSR
B7: Factor interacting with PAPOLA and CPSF1 (protein, UniProt Q6UN15 1-594)
chain: MSAGEVERLVSELSGGTGGDEEEEWLYGGPWDVHVHSDLAKDLDENEVERPEEENASANPPSGIEDETAENGVPKPKVTETEDDSDSDSDDDEDDVHVTIGDIKTGAPQYGSYGTAPVNLNIKTGGRVYGTTGTKVKGVDLDAPGSINGVPLLEVDLDSFEDKPWRKPGADLSDYFNYGFNEDTWKAYCEKQKRIRMGLEVIPVTSTTNKITAEDCTMEVTPGAEIQDGRFNLFKVQQGRTGNSEKETALPSTKAEFTSPPSLFKTGLPPSRNSTSSQSQTSTASRKANSSVGKWQDRYGRAESPDLRRLPGAIDVIGQTITISRVEGRRRANENSNIQVLSERSATEVDNNFSKPPPFFPPGAPPTHLPPPPFLPPPPTVSTAPPLIPPPGFPPPPGAPPPSLIPTIESGHSSGYDSRSARAFPYGNVAFPHLPGSAPSWPSLVDTSKQWDYYARREKDRDRERDRDRERDRDRDRERERTRERERERDHSPTPSVFNSDEERYRYREYAERGYERHRASREKEERHRERRHREKEETRHKSSRSNSRRRHESEEGDSHRRHKHKKSKRSKEGKEAGSEPAPEQESTEATPAE
B8: UPF3B, regulator of nonsense mediated mRNA decay (protein, UniProt Q9BZI7 1-483)
chain: MKEEKEHRPKEKRVTLLTPAGATGSGGGTSGDSSKGEDKQDRNKEKKEALSKVVIRRLPPTLTKEQLQEHLQPMPEHDYFEFFSNDTSLYPHMYARAYINFKNQEDIILFRDRFDGYVFLDNKGQEYPAIVEFAPFQKAAKKKTKKRDTKVGTIDDDPEYRKFLESYATDNEKMTSTPETLLEEIEAKNRELIAKKTTPLLSFLKNKQRMREEKREERRRREIERKRQREEERRKWKEEEKRKRKDIEKLKKIDRIPERDKLKDEPKIKVHRFLLQAVNQKNLLKKPEKGDEKELDKREKAKKLDKENLSDERASGQSCTLPKRSDSELKDEKPKRPEDESGRDYREREREYERDQERILRERERLKRQEEERRRQKERYEKEKTFKRKEEEMKKEKDTLRDKGKKAESTESIGSSEKTEKKEEVVKRDRIRNKDRPAMQLYQPGARSRNRLCPPDDSTKSGDSAAERKQESGISHRKEGGEE

molecular target: T1, human OSTF1 tagged at the N-terminus with a V5-epitope tag (human); assay: affinity purification with mass spectrometry; HEK293 cells transiently transfected in triplicate with empty vector or V5-OSTF1; lysed after 48 h in 50 mM Tris pH 7.5, 1% Triton-X100, 150 mM NaCl; automated IP with anti-V5 magnetic agarose; co-immunoprecipitating proteins identified by LC-MS/MS

binding, binds:
B1, B2, B3, B4, B5, B6, B7, B8
